Data reported in the supplement of paper PMC10338343.
± gives the standard deviation. The entries are a selection whose mix differs from that of the whole data set. The uncertainty is large for many entries.

Tested on: MIWI (PIWIL1) piRISC loaded with L1MC piRNA (30 nt)
Assay: pre-steady-state target cleavage rate (min^-1); MIWI and MILI are mouse PIWI proteins and EfPiwi is from a freshwater sponge; tags in brackets are library labels; higher = faster piRNA-guided slicing of the target
Conditions: guide: L1MC piRNA 5'p-UAACUAAAUACUAUGCAAGCUGUAGGUCCU; auxiliary factor: 500 nM mouse GTSF1
Procedure, shortened: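 A transcribed, DNA-blocked target RNA library (0.1 nM) and 1 nM active affinity-purified piRISC bearing one synthetic guide were incubated in HEPES–potassium acetate buffer at 33 °C for 0–8 or 0–960 min, either with or without 500 nM GTSF1 partner protein. Uncleaved targets were sequenced, normalised to depth and to weakly complementary targets, and pooled over three trials, with k3 capped at 0.0001 min^-1. The pre-steady-state cleavage rate was derived with a burst-and-steady-state fit.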

Row | Sequence | pre-steady-state target cleavage rate
1 | ACGAGCUACAGCUUGCAUAGUAUUUAGUUA | 1.54 ± 0.057
2 | AGGACCAACAGCAUGCAUAGUAUUUAGUUA | 1.39 ± 0.048
3 | AGCUGCUACAGCUUGCAUAGUAUUUAGUUA | 1.49 ± 0.07

Same assay, conditions: guide: L1MC piRNA 5'p-UAACUAAAUACUAUGCAAGCUGUAGGUCCU; auxiliary factor: none (no GTSF1)

Row | Sequence | pre-steady-state target cleavage rate
4 | AGGACCUACAGCUACGAUAGUAUUUAGUUA | 0.00108 ± 0.0049
5 | UCGACCUACAGCUUGCAUACUAUUUUCAAA | 0.000842 ± 0.0052
6 | UGGACCUACAGCUUGCAUAGAUAUUAGUUA | 0.0014 ± 0.0046
7 | UCGACCUACAGCUUGCAUAGUUAUUAGAAA | 0.00153 ± 0.0046
8 | UCCACCUACAGCUUGCAUAGUAAAAAGUAA | 0.000908 ± 0.0078
9 | UGGACCUACAGCUUCGAUAGUAUUUACAAA | 0.00024 ± 0.013
10 | UCCACCUACAGCUUGCAUAGUUAAUAGAAA | 0.000329 ± 0.0081
11 | UGGACCUACUCGUUGCAUAGUAUUUUCAAA | 0.00076 ± 0.0054
12 | UGGACCUACAGCUUCGUUAGUAUUUAGUUA | 0.00139 ± 0.0023
13 | UCCACCUACUCGUUGCAUAGUAUUUACAAA | 0.000948 ± 0.0059
14 | AGGACCUACAGCAUGCAUAGUAUUUUCAAA | 0.00245 ± 0.0041
15 | UCCUGGAUGUGCAUGCAUAGUAAUUAGUUA | 0.00265 ± 0.0028
16 | UGGACCUAGUCCUUGCAUAGUAUUUUCAAA | 0.000773 ± 0.0041
17 | UCCUGGUACAGCUUGCAUAGUAUAAUCAAA [g8:g24:cont:t1A] | 0.000347 ± 0.0085
18 | UCCACCUACAGCUUGCAUAGAUAUUUCAAA | 0.000238 ± 0.012
19 | UCCUGGAUGUCGAACCAUACUAUUUAGUUA | 0.000184 ± 0.018
20 | UCCACCUACAGCUACGAUAGUAUUUAGUAA | 0.000198 ± 0.018
21 | UCCACCUACAGCUUGCAAUCAUAAAUCAAA [g14:g27:cont:t1A] | 0.000468 ± 0.015
22 | UCCACCUACAGCUUCCAUUGUAUUUAGUUA | 0.00204 ± 0.0027
23 | AGGACCUACAGCUUGGUAAGUAUUUAGAAA | 0.000263 ± 0.013

Laid out differently: results already given
UCCACCUACAGCUACGAUAGUAUUUAGUAA
  pre-steady-state target cleavage rate = 0.000198 ± 0.018
AGGACCUACAGCUUGGUAAGUAUUUAGAAA
  pre-steady-state target cleavage rate = 0.000263 ± 0.013
